Test results as given in patent US10513547B2, “Peptides and combination of peptides and scaffolds thereof for use in immunotherapy against colorectal carcinoma (CRC) and other cancers” (Immatics Biotechnologies GmbH, priority 2015, dated 2019).

System: HLA molecules from shock-frozen tissue samples (CRC, other tumors, normal tissues)
Experiment: Identification and label-free relative LC-MS quantitation of HLA-presented tumor associated peptides (presentation profiles, XPRESIDENT)
Set-up: species or system human; key to Peptide Presentation (presentation score): very highly over-presented on tumors compared to a panel of normal tissues (+++); highly over-presented on tumors compared to a panel of normal tissues (++); over-presented on tumors compared to a panel of normal tissues (+)
Details: for Additional Entities (additional tumor types on which the peptide was found): over-presentation on more than 5% of the measured tumor samples, or presentation on more than 5% of the measured tumor samples with ratio of geometric means tumor vs normal tissues larger than 3; for Peptide Presentation (presentation score): over-presentation on tumors compared to a panel of normal tissues; for Other relevant organs/diseases: additional tumor types: over-presented on more than 5% of measured tumor samples, or presented on more than 5% with ratio of geometric means tumor vs normal larger than 3

## 100 (SLDDFLATA; listed as Homo sapiens) [compound 100]
  Additional Entities (additional tumor types on which the peptide was found): PC, CLL, BRCA, Melanoma, Esophageal Cancer, Urinary bladder cancer, Uterine Cancer, Gallbladder Cancer, Bile Duct Cancer
  Peptide Presentation (presentation score): +

## SEQ ID NO.: 6 (FLAELPGSLSL; listed as Homo sapiens)
All samples with detectable presentation, all tumor types
  number of cancer tissues with detectable presentation of the peptide: 57
Normal tissue panel as in FIG. 1A-C
  number of normal tissues with detectable presentation of the peptide: 2

## 69 (GMLNEAEGKAIKL; listed as Homo sapiens) [compound 69]
  Other relevant organs/diseases: Prostate
  Peptide Presentation (presentation score): +

## 169 (YLAHFIEGL; listed as Homo sapiens) [compound 169]
  Other relevant organs/diseases: Brain, Liver, Leukocytes, Esophagus
  Additional Entities (additional tumor types on which the peptide was found): Urinary bladder cancer, OC

## 54 (ALLNGEYLLAA; listed as Homo sapiens) [compound 54]
  Other relevant organs/diseases: Liver, Ovary, Esophagus
  Additional Entities (additional tumor types on which the peptide was found): NSCLC, Brain Cancer, GC, BRCA, Melanoma, Urinary bladder cancer, Uterine Cancer, Gallbladder Cancer, Bile Duct Cancer, AML, NHL
  Peptide Presentation (presentation score): +

## 244 (SLHFLILYV; listed as Homo sapiens) [compound 244]
  Other relevant organs/diseases: Lung, Kidney, Brain, Liver, Melanoma
  Peptide Presentation (presentation score): +

## 220 (KMDPVAYRV; listed as Homo sapiens) [compound 220]
  Other relevant organs/diseases: Liver, Prostate
  Peptide Presentation (presentation score): +

## 191 (QLFSEIHNL; listed as Homo sapiens) [compound 191]
  Other relevant organs/diseases: Brain, Liver
  Additional Entities (additional tumor types on which the peptide was found): SCLC, Melanoma, Urinary bladder cancer, Gallbladder Cancer, Bile Duct Cancer, AML, NHL, PC

## 48 (FLDASDPAL; listed as Homo sapiens) [compound 48]
  Other relevant organs/diseases: Kidney, Prostate
  Peptide Presentation (presentation score): +++

## 132 (ALLNAILHSA; listed as Homo sapiens) [compound 132]
  Other relevant organs/diseases: Lung, Brain, Liver, Ovary, Esophagus
  Additional Entities (additional tumor types on which the peptide was found): SCLC, CLL, Melanoma, Urinary bladder cancer, Uterine Cancer, NHL, PC
  Peptide Presentation (presentation score): +++

## 125 (KLGDFGLLVEL; listed as Homo sapiens) [compound 125]
  Other relevant organs/diseases: Lung, Brain, Melanoma, Ovary, Esophagus
  Additional Entities (additional tumor types on which the peptide was found): SCLC, Urinary bladder cancer, AML, PC
  Peptide Presentation (presentation score): +++

## 246 (GLTDNIHLV; listed as Homo sapiens) [compound 246]
  Other relevant organs/diseases: Lung, Kidney, Pancreas, Breast, Ovary, Esophagus
  Peptide Presentation (presentation score): +

## 62 (YLAPENGYL; listed as Homo sapiens) [compound 62]
  Other relevant organs/diseases: Lung, Liver, Melanoma, Esophagus
  Additional Entities (additional tumor types on which the peptide was found): SCLC, CLL, Urinary bladder cancer, Uterine Cancer, Gallbladder Cancer, Bile Duct Cancer, AML, NHL
  Peptide Presentation (presentation score): ++

## 237 (KLVEFDFLGA; listed as Homo sapiens) [compound 237]
  Other relevant organs/diseases: Lung, Brain, Stomach, Liver, MCC, Ovary, Esophagus
  Peptide Presentation (presentation score): ++

## 113 (ILYDLQQNL; listed as Homo sapiens) [compound 113]
  Additional Entities (additional tumor types on which the peptide was found): SCLC, CLL, BRCA, Melanoma, Urinary bladder cancer, Uterine Cancer, Gallbladder Cancer, Bile Duct Cancer, AML, NHL
  Peptide Presentation (presentation score): +

## 30 (GLSSAYGGL; listed as Homo sapiens) [compound 30]
  Peptide Presentation (presentation score): +++

## 15 (LQLDKEFQL; listed as Homo sapiens) [compound 15]
  Other relevant organs/diseases: Lung, Esophagus
  Peptide Presentation (presentation score): +

## 175 (TLLGGKEAQALGV; listed as Homo sapiens) [compound 175]
  Other relevant organs/diseases: Ovary

## 233 (RLDDLKMTV; listed as Homo sapiens) [compound 233]
  Other relevant organs/diseases: Lung, Kidney, Pancreas, Breast, Ovary, Esophagus
  Peptide Presentation (presentation score): ++

## 259 (ALADKELLPSV; listed as Homo sapiens) [compound 259]
  Other relevant organs/diseases: Lung, Kidney, Liver, Pancreas, Prostate, Melanoma, Ovary, Esophagus
  Peptide Presentation (presentation score): +

## 80 (QVDEVVDIMRV; listed as Homo sapiens) [compound 80]
  Other relevant organs/diseases: Leukocytes
  Additional Entities (additional tumor types on which the peptide was found): AML
  Peptide Presentation (presentation score): ++

## 79 (SLAADQLLKL; listed as Homo sapiens) [compound 79]
  Other relevant organs/diseases: Lung, Liver
  Additional Entities (additional tumor types on which the peptide was found): Uterine Cancer

## 161 (FLKNELDNV; listed as Homo sapiens) [compound 161]
  Other relevant organs/diseases: Lung, Liver, Leukocytes, Breast, Melanoma, Ovary
  Additional Entities (additional tumor types on which the peptide was found): Esophageal Cancer, Urinary bladder cancer, Uterine Cancer, AML, NHL
  Peptide Presentation (presentation score): ++

## 25 (SLADRLIGV; listed as Homo sapiens) [compound 25]
  Other relevant organs/diseases: Prostate, Ovary
  Additional Entities (additional tumor types on which the peptide was found): SCLC, BRCA, Uterine Cancer
  Peptide Presentation (presentation score): +++

## 206 (RIAGIRGIQGV; listed as Homo sapiens) [compound 206]
  Other relevant organs/diseases: Lung, Kidney, Liver, Prostate, Ovary
  Peptide Presentation (presentation score): ++

## 57 (NLLEKENYL; listed as Homo sapiens) [compound 57]
  Other relevant organs/diseases: Ovary
  Peptide Presentation (presentation score): ++

## 209 (KLQDGLLHI; listed as Homo sapiens) [compound 209]
  Other relevant organs/diseases: Kidney, Brain, Liver, Pancreas
  Peptide Presentation (presentation score): +++

## 2 (ALLPRYFFL; listed as Homo sapiens) [compound 2]
  Additional Entities (additional tumor types on which the peptide was found): Uterine Cancer
  Peptide Presentation (presentation score): +++

## 174 (ILLDDNMQIRL; listed as Homo sapiens) [compound 174]
  Other relevant organs/diseases: Liver, Melanoma, Ovary
  Additional Entities (additional tumor types on which the peptide was found): SCLC, CLL, Urinary bladder cancer, AML

## 164 (KMLDEILLQL; listed as Homo sapiens) [compound 164]
  Other relevant organs/diseases: Brain
  Additional Entities (additional tumor types on which the peptide was found): SCLC, RCC, CLL, Melanoma, OC, Urinary bladder cancer, AML, NHL
  Peptide Presentation (presentation score): ++

## 242 (RLEEDDGDVAM; listed as Homo sapiens) [compound 242]
  Other relevant organs/diseases: Lung, Kidney, Brain, Liver, Pancreas, Leukocytes, Breast, Melanoma
  Peptide Presentation (presentation score): ++

## 262 (VLAKPGVISV; listed as Homo sapiens) [compound 262]
  Other relevant organs/diseases: Lung, Pancreas

## 19 (RLYTKLLNEA; listed as Homo sapiens) [compound 19]
  Other relevant organs/diseases: Brain, Esophagus
  Additional Entities (additional tumor types on which the peptide was found): Melanoma, Urinary bladder cancer, Uterine Cancer, Gallbladder Cancer, Bile Duct Cancer
  Peptide Presentation (presentation score): +++
